# From patent US10392363B2, “Methods for treating protozoan infections” (Neoculi Pty Ltd., priority 2014, dated 2019)
# Some entries share one result that the patent states for a list of compounds.
# System: Leishmania donovani promastigotes
# Test: L. donovani screening (Alamarblue)
# Assay type: cell-based
# Details: 10 μM, 96 hrs
# Procedure: L. donovani Screening. Procyclic promastigotes from exponentially growing cultures maintained in DME-L+ Bob additions were used for all assays. Compounds were initially screened for activity at 10 μM. Compounds were diluted in culture media to a […] in 96 well plates. Promastigotes were diluted to a density of ˜8×10^5 cells/ml then added to the assay plate resulting in a final cell density of 4×10^5 cells/ml. in 96 well plates. Cells were incubated for 96 hrs at 27° C. before the addition of Alamarblue (thermofisher). Fluorescence was read at excitation 530 nm and Emission 590 nm. […] Compounds were serially diluted in thirds, in a 96 well plate, in cell growth media so that concentrations ranged from 0.005 to 10 μM and promastigotes added to a final concentration of 1×10^6 cells/ml. Cells were incubated at 27° C. for 72 hours before the addition of alamar blue. Fluorescence was measured as above.
smiles,measurement,value
N#Cc1cccc(C=NNC(=N)NN=Cc2cccc(C#N)c2)c1 [NCL026],reduction of metabolic activity / inhibition of L. donovani,100%
